Assay results as given in publication PMC3176765, “Mechanism of the Interaction between the Intrinsically Disordered C-Terminus of the Pro-Apoptotic ARTS Protein and the Bir3 Domain of XIAP” (PLoS ONE, 2011).
Results are given in words; binding and its absence hold for the method and conditions named.

Protein sequences, listed by entry. Tags and fused reporters are not part of them. Residues count along the entry.
UniProt P98170, residues 252-350: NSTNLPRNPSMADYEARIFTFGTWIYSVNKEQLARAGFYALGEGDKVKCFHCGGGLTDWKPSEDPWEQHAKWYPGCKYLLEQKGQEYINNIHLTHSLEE

T1: fl-ARTS 248-274 (human)
T1 sequence (peptide, 5' and 6' carboxyfluorescein on the N-terminus): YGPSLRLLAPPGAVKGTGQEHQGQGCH

T2: fl-ARTS 248-256 (human)
T2 sequence (peptide, 5' and 6' carboxyfluorescein on the N-terminus): YGPSLRLLA

T3: fl-ARTS 257-265 (human)
T3 sequence (peptide, 5' and 6' carboxyfluorescein on the N-terminus): PPGAVKGTG

T4: fl-ARTS 266-274 C273A (human)
T4 sequence (peptide, 5' and 6' carboxyfluorescein on the N-terminus): QEHQGQGAH

T5: fl-ARTS 266-274 H268A (human)
T5 sequence (peptide, 5' and 6' carboxyfluorescein on the N-terminus): QEAQGQGCH


Key:
fl-ARTS 248-274 (human) = target: T1, fl-ARTS 248-274 (human); assay: fluorescence polarisation; Bir3 titrated into fl-ARTS CTD in the presence of 2 mM DTT; 20 mM Hepes pH 7.4, 45 mM NaCl, 10°C; both purified
fl-ARTS 248-256 (human) = target: T2, fl-ARTS 248-256 (human); assay: condition: Bir3 150 µM stock, 200 µl titrated into 1 ml of peptide; fluorescence polarisation; non-labeled Bir3 (200 µl, 150 µM) titrated in 5 µl additions into 1 ml of fluorescein-labeled peptide; 20 mM Hepes pH 7.4, 45 mM NaCl, 10°C; fit to 1:1 binding model; both purified
fl-ARTS 257-265 (human) = target: T3, fl-ARTS 257-265 (human); assay: as above
[1] = target: T4, fl-ARTS 266-274 C273A (human); assay: as above
[2] = target: T5, fl-ARTS 266-274 H268A (human); assay: as above
[3] = target: ARTS CTD 248-274 (not labelled) (human); assay: SEC; analytical gel filtration of ARTS CTD 248-274 in the presence of 2 mM DTT; 20 mM Hepes pH 7.4, 50 mM NaCl, 4°C; peak identified by mass spectrometry; both purified

| Molecule | binding (fl-ARTS 248-274 (human)) | binding (fl-ARTS 248-256 (human)) | binding (fl-ARTS 257-265 (human)) | binding [1] | binding [2] | binding [3] |
| --- | --- | --- | --- | --- | --- | --- |
| Bir3 domain of XIAP (residues 252-350) with a C-terminal His tag (from UniProt P98170 252-350) (domain or fragment) | no binding (condition: with 2 mM DTT) | no binding | no binding | no binding | no binding | – |
| YGPSLRLLAPPGAVKGTGQEHQGQGCH (numbers count on: ARTS/Sept4_i2 (GenBank AAG45673.1); also called ARTS C-terminal domain; source: synthetic peptide) [ARTS CTD 248-274 (not labelled)] | – | – | – | – | – | no binding (condition: with 2 mM DTT) |
